Results published in PubChem BioAssay AID504467 (National Center for Advancing Translational Sciences (NCATS), 2011).
The campaign covered roughly 330,000 compounds. About 7,700 (2.3%) were called active. This list was built around the results that the source calls inconclusive (neither active nor inactive); the mix of calls is not that of the screen. Calls follow the shape of the dose curve; as a rule, active = well fitted inhibition curve with a large enough effect; inconclusive = small, poorly fitted or top-dose-only effect, or effect the other way; inactive = flat fitted curve, though single readings scatter. Potencies of inconclusive entries are doubtful fits and often do not repeat.

Test: qHTS screen for small molecules that inhibit ELG1-dependent DNA repair in human embryonic kidney (HEK293T) cells expressing luciferase-tagged ELG1; also: nearly all actives have a fitted effect of over 55% in size
Conditions: HEK293T ELG1-luciferase reporter, luminescence, 16 h, DNA damage induced by 5-fluorouridine; activity change, negative = inhibition: at 46.1 µM (top of the series)
Outline: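 Reporter activity after DNA damage by 5-fluorouridine is monitored. Compound-treated cells incubate 16 hr at 37 °C, then ONE-Glo is added for 30 min before luminescence reading.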
% is scaled to controls: 0 for no effect and ±100 for the full control effect; potency is read from the fitted curve at half-maximal effect.

Structure (SMILES)	activity change, negative = inhibition	Potency
COc1cc(/C=C2\SC(N)=NC2=O)ccc1OCC(=O)Nc1ccccc1C	inactive: 6.12%	
O=C(N/N=C/c1ccc(O)c(O)c1)c1cccc(S(=O)(=O)N2CCCC2)c1	inactive: 0%	
COCCn1cnc2c1c(=O)n(CC(=O)NC(=O)NC(C)(C)C)c(=O)n2Cc1ccccc1	inactive: 4.13%	
Cc1ccc(C(=O)/C=C/Nc2cccc(O)c2)cc1		inconclusive: 4.61 µM [activator, partial curve, poor fit]
CCOC(=O)c1ccc(-c2ccc(/C=C(\C#N)C(=O)NCc3cccs3)o2)cc1		inconclusive: 18.4 µM [activator, partial curve, poor fit]
COc1ccccc1NCC(=O)c1ccc(C)c(C)c1		inconclusive: 35.5 µM [activator, single point]
CCCC(=O)Nc1nc2ccc3nc(C)sc3c2s1	inactive: 13.8%	
Cc1cc(F)ccc1S(=O)(=O)N1CCCCC1CCNC(=O)C(=O)NCc1ccccn1 (stereo unspecified)	inactive: -0.449%	
CCN1CCN(C(=O)c2sc3ncnc(N4CCc5ccccc5C4)c3c2C)CC1		inconclusive: 25.9 µM [inhibitor, single point]
Cc1nc(NC(C)C)c2oc3ccccc3c2n1		inconclusive: 18.4 µM [inhibitor, partial curve, poor fit]
O=c1n(-c2ccccc2)c(=O)n2n1CCCC2	inactive: -3.27%	
C[C@H](NC(=O)c1[nH]cnc1C(=O)Nc1ccccc1)c1ccccc1		inconclusive: 18.3 µM [inhibitor, single point]
CCCCC(=O)Oc1ccccc1C1SCc2cc(C)c(C)cc2CS1		inconclusive: 29.1 µM [activator, partial curve, poor fit]
O=C(NC(=S)N1CCN(C2CCCCC2)CC1)c1ccccc1	inactive: 5.29%	
C=CC[C@@H](Cc1ccc(F)cc1)C(=O)OC[C@H]1CCCN1C(=O)[C@@H](CC=C)CC(=O)N(CCO)Cc1ccccc1	inactive: -23.5%	
CC12CCC(=O)N1C(C(=O)Nc1ccc(Cl)c(S(=O)(=O)N3CCCCC3)c1)CS2 (stereo unspecified)		inconclusive: 14.6 µM [inhibitor, single point]
N#CCc1ccccc1C(=O)OCC(=O)N(Cc1ccccc1)Cc1ccccc1		inconclusive: 18.3 µM [inhibitor, single point]
COC(=O)c1sccc1NC(=O)Nc1ccc(C)cc1		inconclusive: 18.3 µM [activator, partial curve]
COc1c(C(=O)Nc2ccc(Cc3ccncc3)cc2)ccc2ccccc12		inconclusive: 18.4 µM [inhibitor, single point]
CCN(CC)CCn1c(=S)[nH]c2ccc(Br)cc2c1=O	inactive: -0.696%	
CC(C)CCNC(=O)c1onc(CSc2nc3ccccc3[nH]2)c1C(=O)NCCC(C)C	inactive: -14.8%	
COc1ccc(CN(C(=O)c2oc3ccc(F)cc3c2C)C2CCS(=O)(=O)C2)cc1 (stereo unspecified)		inconclusive: 14.6 µM [inhibitor, partial curve]
COc1ccc(CCNC(=O)C(=O)NCC2OCCN2S(=O)(=O)c2ccc(Cl)cc2)cc1OC (stereo unspecified)		inconclusive: 13 µM [inhibitor, partial curve, poor fit]
O=C(CCCc1ccccc1)NC1CC1	inactive: 5.55%	

Structure (SMILES)	activity change, negative = inhibition	Potency
O=C(COC(=O)c1c(Cl)cccc1Cl)NC1CCCCCCC1		inconclusive: 23.1 µM [inhibitor, single point]
O=C(CSc1ncc(C(F)(F)F)cc1Cl)N1CCN(S(=O)(=O)c2ccccc2)CC1		inconclusive: 29.1 µM [inhibitor, single point]
CCN1C(=O)c2ccccc2Sc2ccc(C(=O)NCCCN3CCOCC3)cc21	inactive: 13.9%	
O=C(Nc1ccc2nc(-c3ccco3)c(-c3ccco3)nc2c1)N1CCCCCC1		inconclusive: 16.4 µM [inhibitor, partial curve]
C=C(C)c1ccc(C(C)(C)NC(=O)N2CCN(C)CC2)cc1		inconclusive: 5.8 µM [inhibitor, single point]
Cc1ccccc1Cn1cc(NC(=O)c2nn(C)cc2Cl)cn1		inconclusive: 32.6 µM [activator, single point]
CCC1=C(OC(=O)N(CC)CC)N2C(=O)OC(=NCC3CC3)[C@]2(Cc2ccccc2)[C@H]2C1=CC[C@H]1C(=O)N(C)C(=O)[C@H]12	inactive: -2.7%	
O=C(COC(=O)c1ccc(F)c(S(=O)(=O)N2CCOCC2)c1)Nc1ccc2[nH]c(=O)[nH]c2c1	inactive: 1.77%	
Fc1ccccc1CNc1ncnc2sccc12		active: 2.91 µM
Clc1ccc(C#Cc2cccnc2)cc1		inconclusive: 35.5 µM [activator, single point]
Nn1c(SCc2nc3ccccc3[nH]2)nnc1-c1ccccc1		inconclusive: 20.6 µM [inhibitor, single point]
O=C(CSc1nnc(C2CC2)n1C1CC1)c1ccc(Br)s1	inactive: 28.2%	
COc1ccc(CC(=O)NCc2ccc3c(c2)OCO3)cc1	inactive: 13.5%	
CC(=O)N1CCN(C(=S)NC(=O)c2ccc(S(=O)(=O)N3CCOCC3)cc2)CC1	inactive: 0.678%	
O=C(CSc1nnc2ccc(-c3ccco3)nn12)Nc1ccccc1F		inconclusive: 5.62 µM [activator, partial curve, poor fit]
COc1cc(OC)c2c(-c3cccc(-c4ccoc4)c3)cc(=O)oc2c1		inconclusive: 20.6 µM [inhibitor, partial curve]
CN(CC(=O)Nc1ccccc1Br)C(=O)c1cc2c(s1)CCCCC2		inconclusive: 4.11 µM [activator, partial curve]
COc1ccc(-c2csc(NC(=S)NC(=O)c3cc4ccccc4o3)n2)cc1Br		inconclusive: 7.3 µM [activator, partial curve, poor fit]
O=C1CCN1C1(C(=O)NC2CCCCC2)CCCC1	inactive: -2.11%	
CCOc1ccc(NC(=O)c2cccc(NC(=O)c3ccccc3)c2)cc1		inconclusive: 11.6 µM [activator, partial curve, poor fit]
CCOC(=O)c1cc2c(ccn2C)n1CC(=O)N(CC)CC	inactive: -5.76%	
CN(Cc1ccccc1)C(=O)c1ccc(NC(=O)Cc2cccc(NC(=O)C3CCN(C(=O)C4CCC4)CC3)c2)cc1		active: 5.17 µM
COCc1cc(C)nc(OCC(=O)N/N=C/c2ccc(-c3cc([N+](=O)[O-])ccc3C)o2)c1C#N	inactive: -17.3%	
Cc1cc(C)c(C#N)c(SCC(=O)N2CCN(Cc3ccccc3)CC2)n1		inconclusive: 29.1 µM [inhibitor, single point]

In the list so far, these contain an aryl thioether with sulfur outside any ring.
Structure (SMILES)	activity change, negative = inhibition	Potency
CC(C)CCNC(=O)c1onc(CSc2nc3ccccc3[nH]2)c1C(=O)NCCC(C)C	inactive: -14.8%	
O=C(CSc1ncc(C(F)(F)F)cc1Cl)N1CCN(S(=O)(=O)c2ccccc2)CC1		inconclusive: 29.1 µM [inhibitor, single point]
Nn1c(SCc2nc3ccccc3[nH]2)nnc1-c1ccccc1		inconclusive: 20.6 µM [inhibitor, single point]
O=C(CSc1nnc(C2CC2)n1C1CC1)c1ccc(Br)s1	inactive: 28.2%	
O=C(CSc1nnc2ccc(-c3ccco3)nn12)Nc1ccccc1F		inconclusive: 5.62 µM [activator, partial curve, poor fit]
Cc1cc(C)c(C#N)c(SCC(=O)N2CCN(Cc3ccccc3)CC2)n1		inconclusive: 29.1 µM [inhibitor, single point]

Next part:

Structure (SMILES)	activity change, negative = inhibition	Potency
Fc1ccc(/C=N/NC(=S)Nc2ccc(Cl)cc2)cc1F		inconclusive: 20.6 µM [activator, single point]
CCC(C)N1CC23C=CC(O2)C(C(=O)OC)C3C1=O (stereo unspecified)		inconclusive: 23.1 µM [activator, single point]
Cc1cccc(N2CCN(S(=O)(=O)c3ccc4c(c3)CC(C)N4C(=O)C3CC3)CC2)c1C (stereo unspecified)		inconclusive: 25.9 µM [inhibitor, single point]
CC(C)Cn1c(-c2ccc(Br)o2)n[nH]c1=S	inactive: 0.342%	
CCOc1cc2c3c(c1)C(C)=CC(C)(C)N3C(=O)C2=O	inactive: -1.49%	
CCOCCCNC(=O)c1cc(Cl)c(NC(=O)C2=C(C)OCCS2)cc1OC	inactive: -20%	
COc1ccc(NC(=O)COC(=O)[C@@H]2CCCN2S(=O)(=O)c2ccccc2F)c(OC)c1		inconclusive: 20.6 µM [activator, partial curve, poor fit]
Cc1c(NC2=C(Cl)C(=O)N(c3ccccc3)C2=O)c(=O)n(-c2ccccc2)n1C	inactive: -2.61%	
Cc1cc(-c2nc3ccccc3[nH]2)ccc1N		inconclusive: 3.66 µM [activator, full curve]
Fc1ccc(CSc2nc3ccccc3[nH]2)cc1		inconclusive: 2.06 µM [activator, full curve]
COc1ccc(-c2nnc(SCc3csc(N)n3)n2C)cc1		inconclusive: 11.6 µM [activator, partial curve, poor fit]
COc1ccc(C2CC(c3cccs3)=NN2C(=O)CSc2nc(=O)n3ccccc3n2)cc1 (stereo unspecified)		inconclusive: 29.1 µM [inhibitor, single point]
CCN(Cc1ccc2c(c1)OCCO2)C(=O)CN1C(=O)NC2(CCCCC2)C1=O	inactive: 17.4%	
O=C(NCc1ccc2c(c1)OCO2)c1c(-c2ccccc2)sc2ccccc12		inconclusive: 29.1 µM [activator, partial curve]
CCn1cc(Cl)c(C(=O)Nc2ccccc2C(N)=O)n1		inconclusive: 20.6 µM [activator, partial curve]
Cc1ccc(S(=O)(=O)N2CCCCC2)cc1NC(=O)COC(=O)C1(C)CC1(Cl)Cl (stereo unspecified)		inconclusive: 16.4 µM [inhibitor, single point]
CC(=O)Nc1cccc(Oc2ccc3c(c2)C(=O)NC3=O)c1		inconclusive: 35.5 µM [activator, single point]
O=C(O)C/C(=C\c1cccc(NC(=O)c2ccccc2Cl)c1)c1nc2ccccc2s1	inactive: 17.5%	
COc1ccc(-c2cc3c(=O)n(CC(=O)Nc4ccc(C(C)=O)cc4)ncn3n2)cc1		inconclusive: 13 µM [activator, partial curve]
O=C(Nc1cccc(S(=O)(=O)N2CCCC2)c1)c1cc(=O)[nH]c2ccccc12	inactive: -5.7%	
Cc1ccc(C2=NN(S(C)(=O)=O)C(c3ccc4nccnc4c3)C2)cc1 (stereo unspecified)		inconclusive: 16.4 µM [activator, partial curve]
Cc1cc(C(=O)Nc2cnc3ccccc3c2)ccc1[N+](=O)[O-]		inconclusive: 5.17 µM [activator, partial curve]
Cc1cc(C)n(C(=O)c2c([N+](=O)[O-])c(C)nn2C)n1	inactive: 9.8%	
